The target in one experiment is recombinant GST-YOD1 (UniProt Q5VVQ6). As to the kind of experiment: pull-down; GST-YOD1 (or GST) on Glutathione Sepharose 4B; candidate protein incubated 2 hr at 4°C in assay buffer with 0,5% Triton X100; Western blot or Coomassie; both purified. On the technique in general: In western blotting, separated proteins are transferred to a membrane and probed.
For experiment [1], the target named is YOD1, GAL4 AD or BD fusion (yeast two-hybrid) (UniProt Q5VVQ6). As to the kind of experiment: two-hybrid; GAL4 AD (pGAD-C1) and BD (pGBD-C1) fusions co-transformed in S. cerevisiae PJ69-7A; growth on -HIS-LEU-TRP plates.

For 2 molecules, binding results are on record in article PMC5340530.

These are yes or no findings as the source states them, for the method shown. Some results given as binding are weak or reduced against the parent protein; the word gives no strength. For some assays here: Sequences can lack the tags named with a protein.

B1: Strep-TRAF6 RZF1 (50–159) (domain or fragment, UniProt Q9Y4K3 50-159)
chain: MEEIQGYDVEFDPPLESKYECPICLMALREAVQTPCGHRFCKACIIKSIRDAGHKCPVDNEILLENQLFPDNFAKREILSLMVKCPNEGCLHKMELRHLEDHQAHCEFAL
Regarding B1, the binding result with recombinant GST-YOD1 is listed as “no binding”.

B2: SHARPIN (AD fusion, yeast two-hybrid) (protein, UniProt Q9H0F6 1-387)
chain: MAPPAGGAAAAASDLGSAAVLLAVHAAVRPLGAGPDAEAQLRRLQLSADPERPGRFRLELLGAGPGAVNLEWPLESVSYTIRGPTQHELQPPPGGPGTLSLHFLNPQEAQRWAVLVRGATVEGQNGSKSNSPPALGPEACPVSLPSPPEASTLKGPPPEADLPRSPGNLTEREELAGSLARAIAGGDEKGAAQVAAVLAQHRVALSVQLQEACFPPGPIRLQVTLEDAASAASAASSAHVALQVHPHCTVAALQEQVFSELGFPPAVQRWVIGRCLCVPERSLASYGVRQDGDPAFLYLLSAPREAPATGPSPQHPQKMDGELGRLFPPSLGLPPGPQPAASSLPSPLQPSWSCPSCTFINAPDRPGCEMCSTQRPCTWDPLAAAST
Turning to B2, in experiment [1], the binding result was “binds weakly”.
